# Values of other authors as cited in publication PMC10341634, “Vasodilating Effects of Antispasmodic Agents and Their Cytotoxicity in Vascular Smooth Muscle Cells and Endothelial Cells—Potential Application in Microsurgery” (International Journal of Molecular Sciences, 2023).
# Settings: cited from earlier work
smiles,measurement,value
"CCN(CC)CC(=O)Nc1c(C)cccc1C [Lidocaine, lidocaine]",demonstrated toxicity level (blood concentration),5 to 10 µg/mL
